Experimental data taken from publication PMC2734569, “Functional mapping of the fission yeast DNA polymerase δ B-subunit Cdc1 by site-directed and random pentapeptide insertion mutagenesis” (BMC Molecular Biology, 2009).
No constants are given. Whether binding was seen depends on the method and setting. Tags and fused reporters may be left off the sequences shown.

T1: Cdc1-A4 (Schizosaccharomyces pombe, UniProt P87324 1-462, Pro303Ala)
T1 construct: Cdc1, S. pombe, point mutant; source: yeast two-hybrid fusion, in S. cerevisiae CTY10-5d
T1 sequence (looked up): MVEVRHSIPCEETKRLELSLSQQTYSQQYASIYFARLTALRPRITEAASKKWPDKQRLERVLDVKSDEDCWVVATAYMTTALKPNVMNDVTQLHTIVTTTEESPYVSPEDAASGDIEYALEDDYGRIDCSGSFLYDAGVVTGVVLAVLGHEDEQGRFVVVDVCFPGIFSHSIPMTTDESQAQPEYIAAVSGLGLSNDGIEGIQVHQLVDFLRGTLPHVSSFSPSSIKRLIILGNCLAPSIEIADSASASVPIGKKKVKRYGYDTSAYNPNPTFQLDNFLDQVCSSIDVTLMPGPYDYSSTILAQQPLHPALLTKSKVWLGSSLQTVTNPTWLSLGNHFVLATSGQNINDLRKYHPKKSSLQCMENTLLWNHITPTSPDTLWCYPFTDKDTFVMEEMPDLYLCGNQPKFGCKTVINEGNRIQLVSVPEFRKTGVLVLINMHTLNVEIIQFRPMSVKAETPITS

T2: Cdc1-E2 (Schizosaccharomyces pombe, UniProt P87324 1-26)
T2 construct: Cdc1, S. pombe, truncated after amino acid 26 by a 16 nt insertion; residues coded by the 16 nt insertion before the stop codon (printed as GlyValProLysTer); source: yeast two-hybrid fusion, in S. cerevisiae CTY10-5d
T2 chain: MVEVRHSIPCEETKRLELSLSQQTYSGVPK

T3: Cdc1-J16 (Schizosaccharomyces pombe, UniProt P87324 1-462, Val-GlyGlyThrProVal-Asp)
T3 construct: Cdc1, S. pombe, with a pentapeptide inserted after residue 160; source: yeast two-hybrid fusion, in S. cerevisiae CTY10-5d
T3 sequence (looked up): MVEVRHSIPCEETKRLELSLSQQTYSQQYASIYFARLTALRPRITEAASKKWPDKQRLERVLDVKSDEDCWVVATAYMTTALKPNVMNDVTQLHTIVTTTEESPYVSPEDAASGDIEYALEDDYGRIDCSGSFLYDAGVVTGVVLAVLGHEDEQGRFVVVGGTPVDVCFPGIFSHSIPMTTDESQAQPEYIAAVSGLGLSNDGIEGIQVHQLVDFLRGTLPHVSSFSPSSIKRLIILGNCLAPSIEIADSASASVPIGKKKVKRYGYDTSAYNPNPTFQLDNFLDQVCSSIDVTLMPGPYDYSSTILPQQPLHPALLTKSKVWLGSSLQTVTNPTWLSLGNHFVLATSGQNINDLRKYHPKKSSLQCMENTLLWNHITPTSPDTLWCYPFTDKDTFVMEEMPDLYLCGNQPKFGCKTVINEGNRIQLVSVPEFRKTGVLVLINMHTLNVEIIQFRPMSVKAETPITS

T4: Cdc1-A7 (Schizosaccharomyces pombe, UniProt P87324 1-462, Gly344Ala)
T4 construct: Cdc1, S. pombe, point mutant; source: yeast two-hybrid fusion, in S. cerevisiae CTY10-5d
T4 sequence (looked up): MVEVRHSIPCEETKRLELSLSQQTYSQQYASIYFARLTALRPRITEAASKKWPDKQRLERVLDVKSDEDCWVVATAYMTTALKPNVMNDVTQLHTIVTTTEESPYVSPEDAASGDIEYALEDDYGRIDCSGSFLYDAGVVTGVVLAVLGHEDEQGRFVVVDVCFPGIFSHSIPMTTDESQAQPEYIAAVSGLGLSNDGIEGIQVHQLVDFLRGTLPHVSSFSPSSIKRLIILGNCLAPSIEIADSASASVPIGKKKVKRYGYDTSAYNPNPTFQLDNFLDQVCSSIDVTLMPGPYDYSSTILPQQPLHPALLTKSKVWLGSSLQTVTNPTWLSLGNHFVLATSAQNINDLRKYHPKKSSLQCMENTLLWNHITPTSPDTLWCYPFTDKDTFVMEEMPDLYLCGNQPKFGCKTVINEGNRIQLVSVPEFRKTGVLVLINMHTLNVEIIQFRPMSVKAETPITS


Key:
Cdc1-A4 = target: T1, Cdc1-A4; experiment: two-hybrid; LexA-Cdc1 bait (pBTM116 or pBTM116BN) with Gal4-Pol3 prey and co-expressed c-myc-tagged Cdc27 (pAA-Cdc27) in S. cerevisiae CTY10-5d; ONPG liquid culture beta-galactosidase assay, mean of triplicates, as percent of wild-type Cdc1
Cdc1-E2 [1] = target: T2, Cdc1-E2; experiment: as above
Cdc1-J16 = target: T3, Cdc1-J16; experiment: two-hybrid; LexA-Cdc1 bait (pBTM116 or pBTM116BN) with Gal4 activation domain-Cdc27 prey (pGAD2F-Cdc27) in S. cerevisiae CTY10-5d; ONPG liquid culture beta-galactosidase assay, mean of triplicates, as percent of wild-type Cdc1
Cdc1-A7 = target: T4, Cdc1-A7; experiment: as above
Cdc1-E2 [2] = target: T2, Cdc1-E2; experiment: as above

binding (Cdc1-A7)	Binder	binding (Cdc1-A4)	binding (Cdc1-E2 [1])	binding (Cdc1-J16)	binding (Cdc1-E2 [2])
	Pol3 (fission yeast DNA polymerase delta catalytic subunit) (natural protein, Schizosaccharomyces pombe, UniProt P30316 1-1086, looked up, DNA polymerase delta catalytic subunit Pol3, S. pombe; prey plasmid named pACT-Pol3 in the results and pGAD2F-Pol3 in the methods; also called Gal4-Pol3; pACT-Pol3; source: yeast two-hybrid fusion, in S. cerevisiae CTY10-5d) MTDRSSNEGVVLNKENYPFPRRNGSIHGEITDVKRRRLSERNGYGDKKGSSSKEKTSSFEDELAEYASQLDQDEIKSSKDQQWQRPALPAINPEKDDIYFQQIDSEEFTEGSVPSIRLFGVTDNGNSILVHVVGFLPYFYVKAPVGFRPEMLERFTQDLDATCNGGVIDHCIIEMKENLYGFQGNEKSPFIKIFTTNPRILSRARNVFERGEFNFEELFPVGVGVTTFESNTQYLLRFMIDCDVVGMNWIHLPASKYQFRYQNRVSNCQIEAWINYKDLISLPAEGQWSKMAPLRIMSFDIECAGRKGVFPDPSIDPVIQIASIVTQYGDSTPFVRNVFCVDTCSQIVGTQVYEFQNQAEMLSSWSKFVRDVDPDVLIGYNICNFDIPYLLDRAKSLRIHNFPLLGRIHNFFSVAKETTFSSKAYGTRESKTTSIPGRLQLDMLQVMQRDFKLRSYSLNAVCSQFLGEQKEDVHYSIITDLQNGTADSRRRLAIYCLKDAYLPQRLMDKLMCFVNYTEMARVTGVPFNFLLARGQQIKVISQLFRKALQHDLVVPNIRVNGTDEQYEGATVIEPIKGYYDTPIATLDFSSLYPSIMQAHNLCYTTLLDSNTAELLKLKQDVDYSVTPNGDYFVKPHVRKGLLPIILADLLNARKKAKADLKKETDPFKKAVLDGRQLALKVSANSVYGFTGATNGRLPCLAISSSVTSYGRQMIEKTKDVVEKRYRIENGYSHDAVVIYGDTDSVMVKFGVKTLPEAMKLGEEAANYVSDQFPNPIKLEFEKVYFPYLLISKKRYAGLFWTRTDTYDKMDSKGIETVRRDNCPLVSYVIDTALRKMLIDQDVEGAQLFTKKVISDLLQNKIDMSQLVITKALSKTDYAAKMAHVELAERMRKRDAGSAPAIGDRVAYVIIKGAQGDQFYMRSEDPIYVLENNIPIDAKYYLENQLSKPLLRIFEPILGEKASSLLHGDHTRTISMAAPSVGGIMKFAVKVETCLGCKAPIKKGKTALCENCLNRSAELYQRQVAQVNDLEVRFARLWTQCQRCQGSMHQDVICTSRDCPIFYMRIAEHKKLQQSVDLLKRFDEMSW	no binding (tested: <1% of wild type (Table 1))	no binding (tested: <1% of wild type (Table 1))		
no binding (tested: <1% of wild type)	Cdc27 (fission yeast DNA polymerase delta C-subunit) (natural protein, Schizosaccharomyces pombe, UniProt P30261 1-372, looked up, DNA polymerase delta C-subunit Cdc27, S. pombe; prey plasmid pGAD2F-Cdc27; also called pGAD2F-Cdc27; source: yeast two-hybrid fusion, in S. cerevisiae CTY10-5d) MEEWRNFLDIKVINESSLVTVDNLSLQLDISSEKAQEYLNMFYQGNDFLYPIYLIHGQPIDDEINLEIDEESQPISNFPVLQYILCDKSSLQEKQSRLKSGYKTVIFALSSAPLSDFDELLPAVYEIREKDVLYKKEDADKYGFIFNENSVPRVLKKAPSTHSPQLSVPSKTSTIDKTDTRSTEKTKGKDIFSNARNQKGNSSRKNKKAPLENHKEKEPLLPKEEKLSEQAKRERDDLKNIMQLEDESVSTTSVHDSEDDNLDSNNFQLEIGTEAKSAAPDEPQEIIKSVSGGKRRGKRKVKKYATTKDEEGFLVTKEEEVWESFSEDENISTGTSNVVRNKPTTVNIATKKKNTAQSKPQQKSIMSFFGKK			no binding (tested: <1% of wild type (Table 1))	no binding (tested: <1% of wild type (Table 1))
